Measured values taken from PubChem BioAssay AID308 (DTP/NCI, 2004).
The list does not hold the whole screen: it gathers tests that were run many times, whatever their T/C, doses with no T/C, and many T/C values between a quarter and a half above the control. Other doses and runs of a compound stand elsewhere. T/C is the treated group as % of the vehicle group. Some doses have a count of surviving animals in place of a T/C: the source holds a T/C of zero for them, seemingly a mark for toxic or unscored doses. Some survivor counts are full or nearly so, which does not show that the dose was tolerated: survival well below the control is almost never listed, so the zero probably covers shortened survival too. Survivors were counted at the toxicity check, usually on the fifth day, unless a day is given; later deaths do not show. Schedule codes are those of the source, read here as Q, the interval in days (D) or hours (H), X, the number of doses. Some schedules carry Z or #; the key to these is not given. Where survival is the endpoint, this PubChem deposit counts one and a half times the control or more as active, and values a quarter to a half above the control carry no call in these data; other NCI protocols may use other cut-offs.

Tested on: BDF1 mice, L1210 6-MP/6-TG resistant leukemia ip, survival T/C
Test: NCI In Vivo Anticancer Drug Screen. Data for tumor model L1210 Leukemia resistant to 6-MP and 6-Thioguanine; NSC 755, NSC 752 (intraperitoneal) in B6D2F1 (BDF1) mice
Settings: T/C endpoint: mean survival time, schedule: Q01DX Z (ip), vehicle: carboxymethylcellulose (CMC), higher T/C = longer survival
Method: The antitumor activity of compounds was measured in mice bearing transplantable tumors. Survival or tumor size were measured and the results are expressed as the measurement made in the treated group (T) divided by the measurement made in the vehicle treated control group (C). The tumor model used in this assay is L1210 Leukemia resistant to 6-MP and 6-Thioguanine; NSC 755, NSC 752 (intraperitoneal) in B6D2F1 (BDF1) mice

O=c1[nH]c(=O)n(C2CC(O)C(CO)O2)cc1I (configuration not stated)
T/C (dose: 50.0 mg/kg/injection): 127 % of control | survivor count (dose: 500.0 mg/kg/injection): 4 of 6
